These are yes or no findings as the source states them, for the method shown. For some assays here: Binding seen in cells or lysates may run through a third protein. Some binding calls cover weakened binding; strength is not graded here. For some assays here: Where a sequence is shown, tags or fusion partners need not be part of it.

The target of experiment [1] is T1, GBD-Scd6 (S. cerevisiae) (UniProt P45978).
T1 sequence: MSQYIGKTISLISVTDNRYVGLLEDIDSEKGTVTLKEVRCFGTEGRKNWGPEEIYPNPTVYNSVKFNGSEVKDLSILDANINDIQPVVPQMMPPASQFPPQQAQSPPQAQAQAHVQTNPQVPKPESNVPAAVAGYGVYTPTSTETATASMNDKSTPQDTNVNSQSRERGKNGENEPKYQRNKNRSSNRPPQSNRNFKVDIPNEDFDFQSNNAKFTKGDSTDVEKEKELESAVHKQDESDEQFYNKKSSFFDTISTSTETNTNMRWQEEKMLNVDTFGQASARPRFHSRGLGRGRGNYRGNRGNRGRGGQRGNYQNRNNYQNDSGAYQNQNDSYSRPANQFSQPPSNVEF
Briefly: two-hybrid; directed test: PJ69-4A co-transformed with pGBD-c1-Scd6 and pGAD-c1-Hmt1; spotted on SC-Leu-Trp, SC-Leu-Trp-His and SC-Leu-Trp-His with 1 mM 3-AT, 3 days at 30°C.

Experiment [2] addresses T2, Scd6Flag (S. cerevisiae) (UniProt P45978).
T2 sequence: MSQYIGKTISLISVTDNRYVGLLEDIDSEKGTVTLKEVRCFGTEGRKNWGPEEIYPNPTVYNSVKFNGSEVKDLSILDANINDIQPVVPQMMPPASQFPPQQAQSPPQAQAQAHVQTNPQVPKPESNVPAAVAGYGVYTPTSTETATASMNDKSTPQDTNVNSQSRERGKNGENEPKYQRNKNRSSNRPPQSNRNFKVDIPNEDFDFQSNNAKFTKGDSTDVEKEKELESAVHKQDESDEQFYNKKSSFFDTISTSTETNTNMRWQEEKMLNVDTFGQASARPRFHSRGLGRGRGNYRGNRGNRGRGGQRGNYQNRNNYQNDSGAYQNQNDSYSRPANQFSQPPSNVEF
The experiment in a line: co-IP; Scd6Flag immunoprecipitated with anti-Flag antibody on protein G-Sepharose from extracts of the Hmt1myc strain in XT buffer (50 mM HEPES-KOH pH 7.3, 20 mM potassium acetate, 2 mM EDTA, 0.1% Triton X-100, 5% glycerol), 30 min at 4°C; extracts with or without 200 μg/mL RNase A; blot with anti-myc.

B1: GAD-Hmt1 (protein, UniProt P38074 1-348)
chain: MSKTAVKDSATEKTKLSESEQHYFNSYDHYGIHEEMLQDTVRTLSYRNAIIQNKDLFKDKIVLDVGCGTGILSMFAAKHGAKHVIGVDMSSIIEMAKELVELNGFSDKITLLRGKLEDVHLPFPKVDIIISEWMGYFLLYESMMDTVLYARDHYLVEGGLIFPDKCSIHLAGLEDSQYKDEKLNYWQDVYGFDYSPFVPLVLHEPIVDTVERNNVNTTSDKLIEFDLNTVKISDLAFKSNFKLTAKRQDMINGIVTWFDIVFPAPKGKRPVEFSTGPHAPYTHWKQTIFYFPDDLDAETGDTIEGELVCSPNEKNNRDLNIKISYKFESNGIDGNSRSRKNEGSYLMH
B1: the binding result in experiment [1] is reported as “binds”.

B2: Hmt1myc (protein, UniProt P38074 1-348)
chain: MSKTAVKDSATEKTKLSESEQHYFNSYDHYGIHEEMLQDTVRTLSYRNAIIQNKDLFKDKIVLDVGCGTGILSMFAAKHGAKHVIGVDMSSIIEMAKELVELNGFSDKITLLRGKLEDVHLPFPKVDIIISEWMGYFLLYESMMDTVLYARDHYLVEGGLIFPDKCSIHLAGLEDSQYKDEKLNYWQDVYGFDYSPFVPLVLHEPIVDTVERNNVNTTSDKLIEFDLNTVKISDLAFKSNFKLTAKRQDMINGIVTWFDIVFPAPKGKRPVEFSTGPHAPYTHWKQTIFYFPDDLDAETGDTIEGELVCSPNEKNNRDLNIKISYKFESNGIDGNSRSRKNEGSYLMH
Take B2: the binding result in experiment [2] was “binds”.

For the origin of these results see article PMC5077174, “Analysis of the Physiological Activities of Scd6 through Its Interaction with Hmt1” (PLoS ONE, 2016).
